PubChem BioAssay AID886 (National Center for Advancing Translational Sciences (NCATS), 2007)
Among all 73,000 compounds or so, about 2,500 (3.4%) were called active. These results got no clear call from the source, so the numbers are uncertain. The call rests on the fitted dose curve; in most records, active means well fitted inhibition curve with a large enough effect; inconclusive means small, poorly fitted or top-dose-only effect; inactive means no such curve, though single readings can be large or run the other way.

The chains behind the UniProt entries cited, without tags or fusion partners.
UniProt Q99714, whole entry: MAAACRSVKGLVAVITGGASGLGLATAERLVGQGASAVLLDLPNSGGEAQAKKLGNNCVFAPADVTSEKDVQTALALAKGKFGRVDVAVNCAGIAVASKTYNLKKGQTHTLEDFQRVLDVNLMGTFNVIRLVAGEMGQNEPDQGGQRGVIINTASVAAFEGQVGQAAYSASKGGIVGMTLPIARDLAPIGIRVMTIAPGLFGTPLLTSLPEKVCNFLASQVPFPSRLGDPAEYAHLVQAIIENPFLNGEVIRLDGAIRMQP

The molecules below were run against 3-hydroxyacyl-CoA dehydrogenase type-2 (Homo sapiens) (UniProt Q99714) (assay: qHTS Assay for Inhibitors of HADH2 (Hydroxyacyl-Coenzyme A Dehydrogenase, Type II)). Conditions: recombinant HADH2, NADH fluorescence, beta-hydroxybutyryl-CoA.
Further: nearly all actives have a fitted effect of over 60% in size.
Potency means the concentration at half of the fitted maximal effect.

Row | SMILES | Potency
1 | COc1ccc(NC2CCN(CCc3ccccc3)CC2)c(OC)c1 | inconclusive: 31.6 µM
